PubChem BioAssay AID652272, Drosophila RNAi Screening Center – 2013

Purpose: 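Genome-wide knock-down search for components of Hedgehog signalling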 (primary screen)
Cell system: Drosophila clone 8 (Cl8) cells
Reagents: long dsRNA against Drosophila genes
Measurement: 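Plate reader light from a firefly reporter under a ptc promoter fragment that responds to Hedgehog, with Renilla light as transfection reference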
Direction: firefly Hh reporter signal: higher = more ptc reporter light; Renilla reference signal: higher = more Renilla control light
Active means: 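Hit when the z-score averaged over two replicates is under -2 or over +3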
Calls: active = hit: reporter lowered or raised; inactive = not a hit
In all, the deposit lists about 21,000 reagents; this is an unselected part of those with a known target gene and a result. Of all reagents, 503 (2.4%) were called active. 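Raw plate light values, not normalised; calls rest on replicate z-scores that were not deposited; hits include reporter decreases as well as increases.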 The numbers tell different reagents against one gene apart. Names joined by + are all predicted targets of the reagent. Not given: the amount of reagent, the time to read-out.

target	reagent	firefly Hh reporter signal, replicate 1	firefly Hh reporter signal, replicate 2	Renilla reference signal, replicate 1	Renilla reference signal, replicate 2	activity call
Pyroxd1 (Pyridine nucleotide-disulfide oxidoreductase domain 1)	1	60077	32749	1542	3317	inactive
ecd (ecdysoneless)	1	78438	73856	4208	3440	inactive
Rim2 (Replication in mitochondria 2)	1	7.37e5	3.58e5	38544	13689	inactive
Rim2 (Replication in mitochondria 2)	2	1.04e5	1.45e5	3659	5011	inactive
TwdlQ (TweedleQ)	1	64237	53689	1760	1424	inactive
qkr54B (quaking related 54B)	1	76421	59504	1928	4059	inactive
CG32708	1	1.49e5	3.39e5	5322	11672	inactive
CG33181	1	71977	2.05e5	2928	8144	inactive
Sodq (Sodesque)	1	5.32e5	1.19e5	28589	2724	inactive
ICA69 (Islet cell autoantigen 69 kDa)	1	1.14e5	69804	4379	2887	inactive
Zip42C.1 (Zinc/iron regulated transporter-related protein 42C.1)	1	86432	54544	2106	2344	inactive
Tak1 (TGF-beta activated kinase 1)	1	5.74e5	2.85e5	41936	7538	inactive
Tak1 (TGF-beta activated kinase 1)	2	73828	2.27e5	2133	8984	inactive
Tak1 (TGF-beta activated kinase 1)	3	1.17e5	4.06e5	3321	16541	inactive

A portion from the list above, as a working copy:
target	reagent	firefly Hh reporter signal, replicate 1	firefly Hh reporter signal, replicate 2	Renilla reference signal, replicate 1	Renilla reference signal, replicate 2	activity call
CG32708	1	1.49e5	3.39e5	5322	11672	inactive
CG33181	1	71977	2.05e5	2928	8144	inactive
Sodq (Sodesque)	1	5.32e5	1.19e5	28589	2724	inactive

Continued.
target	reagent	firefly Hh reporter signal, replicate 1	firefly Hh reporter signal, replicate 2	Renilla reference signal, replicate 1	Renilla reference signal, replicate 2	activity call
Cyp4d20 (Cytochrome P450 4d20)	1	87703	60045	2752	4220	inactive
CG43101	1	1.47e5	2.31e5	4131	9558	inactive
CG43996 + CG43997	1	66283	1.72e5	2096	6599	inactive
CG43996 + CG43997	2	64845	3.36e5	2405	12909	inactive
Pex16 (Peroxin 16)	1	84320	35985	3623	1811	inactive
Pal1 (Peptidyl-alpha-hydroxyglycine-alpha-amidating lyase 1)	1	71760	42665	2820	1735	inactive
CG11898	1	1.40e5	1.63e5	3552	4540	inactive
ome (omega)	1	2.31e5		4827		inactive
ome (omega)	2	1.01e5		2651	2825	inactive
ome (omega)	3	71648		3532	2010	inactive
